Assay [1] addresses p18 (mouse (endogenous in hippocampal neurons and hippocampus)) (UniProt Q9CQ22). Kind of assay: co-IP; lysates of cultured mouse hippocampal neurons; anti-p18 antibody overnight or control IgG, protein A/G agarose; 4°C; lysis buffer 25 mM Tris-HCl pH 7.4, 150 mM NaCl, 1 mM EDTA, 1% NP-40, 5% glycerol; Western blot.
For assay [2], the target named is RagA (mouse (endogenous in hippocampus)) (UniProt Q80X95). Kind of assay: co-IP; mouse hippocampal lysates (WT mice; also AS mice, in which less p18 came down with RagA); rabbit anti-RagA antibody or control IgG, Protein A/G-conjugated beads; 4°C; Western blot.
Assay [3] addresses p18 (mouse (endogenous in hippocampal neurons and hippocampus)) (UniProt Q9CQ22). Briefly: co-IP; lysates of cultured mouse hippocampal neurons; anti-p18 antibody overnight or control IgG, protein A/G agarose; 4°C; lysis buffer 25 mM Tris-HCl pH 7.4, 150 mM NaCl, 1 mM EDTA, 1% NP-40, 5% glycerol; Western blot. This is another data set of the same source.

The chains behind the UniProt entries cited, without tags or fusion partners.
UniProt Q9CQ22: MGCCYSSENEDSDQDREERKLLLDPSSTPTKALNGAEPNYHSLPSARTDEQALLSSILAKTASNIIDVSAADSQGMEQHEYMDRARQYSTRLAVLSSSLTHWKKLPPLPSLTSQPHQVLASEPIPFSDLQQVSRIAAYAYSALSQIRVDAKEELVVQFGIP
UniProt Q80X95: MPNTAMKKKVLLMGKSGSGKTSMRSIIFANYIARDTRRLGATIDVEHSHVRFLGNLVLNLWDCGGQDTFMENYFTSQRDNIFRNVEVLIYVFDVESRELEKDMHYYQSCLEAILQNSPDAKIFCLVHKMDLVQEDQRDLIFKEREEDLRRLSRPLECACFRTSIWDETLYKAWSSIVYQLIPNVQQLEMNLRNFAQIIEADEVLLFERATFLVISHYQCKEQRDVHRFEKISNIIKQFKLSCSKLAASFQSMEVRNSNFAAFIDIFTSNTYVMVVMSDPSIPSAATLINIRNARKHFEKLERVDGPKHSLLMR
UniProt O88653: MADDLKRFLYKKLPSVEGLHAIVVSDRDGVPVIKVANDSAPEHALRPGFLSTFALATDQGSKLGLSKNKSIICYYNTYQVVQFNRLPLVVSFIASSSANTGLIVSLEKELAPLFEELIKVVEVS
UniProt Q6NTA4: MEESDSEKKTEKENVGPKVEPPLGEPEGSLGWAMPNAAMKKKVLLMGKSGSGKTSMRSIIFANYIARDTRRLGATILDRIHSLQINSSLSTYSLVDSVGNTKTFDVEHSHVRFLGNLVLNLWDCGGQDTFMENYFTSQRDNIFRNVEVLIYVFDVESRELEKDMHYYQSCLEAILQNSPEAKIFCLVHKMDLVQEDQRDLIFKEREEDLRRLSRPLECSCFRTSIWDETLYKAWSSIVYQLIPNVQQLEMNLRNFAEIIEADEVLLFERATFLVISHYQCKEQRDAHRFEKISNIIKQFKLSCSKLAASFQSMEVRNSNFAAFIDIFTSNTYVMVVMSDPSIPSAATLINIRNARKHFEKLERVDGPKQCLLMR
UniProt Q99K70: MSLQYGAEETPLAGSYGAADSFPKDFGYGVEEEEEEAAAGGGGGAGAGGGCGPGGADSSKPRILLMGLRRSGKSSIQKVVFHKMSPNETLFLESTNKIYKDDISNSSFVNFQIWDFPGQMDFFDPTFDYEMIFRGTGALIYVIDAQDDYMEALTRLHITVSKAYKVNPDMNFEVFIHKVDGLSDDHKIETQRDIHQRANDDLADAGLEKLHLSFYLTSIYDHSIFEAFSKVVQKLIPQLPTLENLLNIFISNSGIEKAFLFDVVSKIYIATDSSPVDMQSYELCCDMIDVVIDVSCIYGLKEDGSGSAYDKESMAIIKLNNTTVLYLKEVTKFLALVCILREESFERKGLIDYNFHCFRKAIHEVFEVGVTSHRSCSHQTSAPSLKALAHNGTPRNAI
UniProt Q9JHS3: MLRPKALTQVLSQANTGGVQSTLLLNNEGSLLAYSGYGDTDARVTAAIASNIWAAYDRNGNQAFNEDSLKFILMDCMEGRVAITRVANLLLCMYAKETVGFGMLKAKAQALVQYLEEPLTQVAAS

Like-named read-outs stand apart in the source and are kept apart here. No constants are given. Whether binding was seen depends on the method and setting. Binding seen in cells or lysates may run through a third protein. Some results given as binding are weak or reduced against the parent protein; the word gives no strength.

With MP1 (from UniProt O88653 1-124), the binding result in assay [1] was “binds”. In the case of RagB (from UniProt Q6NTA4 1-374), in assay [2], the binding entry is “binds”. As to RagC (from UniProt Q99K70 1-398), the binding entry in assay [2] is reported as “binds”. Regarding p14 (from UniProt Q9JHS3 1-125), the binding result in assay [2] and in assay [1] was “binds” throughout.

p18 (from UniProt Q9CQ22 1-161): the binding entry in assay [2] is reported as “binds”.

B1: Ube3a (enzyme, UniProt O08759 1-870)
chain: MATACKRSPGESQSEDIEASRMKRAAAKHLIERYYHQLTEGCGNEACTNEFCASCPTFLRMDNNAAAIKALELYKINAKLCDPHPSKKGASSAYLENSKGASNNSEIKMNKKEGKDFKDVIYLTEEKVYEIYEFCRESEDYSPLIRVIGRIFSSAEALVLSFRKVKQHTKEELKSLQEKDEDKDEDEKEKAACSAAAMEEDSEASSSRMGDSSQGDNNVQKLGPDDVTVDIDAIRRVYSSLLANEKLETAFLNALVYLSPNVECDLTYHNVYTRDPNYLNLFIIVMENSNLHSPEYLEMALPLFCKAMCKLPLEAQGKLIRLWSKYSADQIRRMMETFQQLITYKVISNEFNSRNLVNDDDAIVAASKCLKMVYYANVVGGDVDTNHNEEDDEEPIPESSELTLQELLGDERRNKKGPRVDPLETELGVKTLDCRKPLISFEEFINEPLNDVLEMDKDYTFFKVETENKFSFMTCPFILNAVTKNLGLYYDNRIRMYSERRITVLYSLVQGQQLNPYLRLKVRRDHIIDDALVRLEMIAMENPADLKKQLYVEFEGEQGVDEGGVSKEFFQLVVEEIFNPDIGMFTYDEATKLFWFNPSSFETEGQFTLIGIVLGLAIYNNCILDVHFPMVVYRKLMGKKGTFRDLGDSHPVLYQSLKDLLEYEGSVEDDMMITFQISQTDLFGNPMMYDLKENGDKIPITNENRKEFVNLYSDYILNKSVEKQFKAFRRGFHMVTNESPLKYLFRPEEIELLICGSRNLDFQALEETTEYDGGYTRESVVIREFWEIVHSFTDEQKRLFLQFTTGTDRAPVGGLGKLKMIIAKNGPDTERLPTSHTCFNVLLLPEYSSKEKLKERLLKAITYAKGFGML
In the case of B1, the binding entry in assay [3] is “binds”.

The record behind these values is article PMC6063731.
